From PubChem BioAssay AID1259415 (National Center for Advancing Translational Sciences (NCATS), 2018)
The whole screen tested about 410,000 compounds, of which about 18,000 (4.4%) were called active. The shares of active, inactive and inconclusive entries below differ from those in the screen. Cut-off read from the data, not from the text of the source: active = activity change below about -60%; inconclusive = no clear call, values can overlap the other calls; inactive = above about -39%.

experiment: qHTS Assay for inhibitors of the human cytomegalovirus (HCMV); settings: HFF cells, HCMV-luciferase reporter, 72 h; at 57.5 µM; active compounds read low
Outline: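 Two compound doses tested in HFFs infected with HCMV-luciferase, MOI 1 PFU/cell, 72 h at 37C. Lysate luminescence read with OneGlo; data normalized against buffer-only and 10uM Salinomycin inhibitor controls.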
% is set by controls: 0 for no effect and ±100 for the full control effect.

| SMILES | activity change, negative = inhibition |
| --- | --- |
| Cc1ccc(S(=O)(=O)N(CC(=O)Nc2c(C)cccc2C)c2cccc(Cl)c2)cc1 | inconclusive: -56.8% |
| Cc1ccsc1C(=O)c1sccc1C | inconclusive: -44% |
| Cc1ccc2nc(CN3CCN(S(=O)(=O)c4ccccc4)CC3)oc2c1 | inconclusive: -46.2% |
| CC(C)Oc1cccc(C(=O)Nc2ccc3oc(-c4ccccc4)nc3c2)c1 | inactive: -33.4% |
| CCOc1ccc(C(NC(=O)c2cc(OC)c(OC)c(OC)c2)c2cc(Cl)c3cccnc3c2O)cc1 (stereo not given) | inconclusive: -48.5% |
| Cc1cccc(NC(=O)CSc2nc3ccc(NC(=O)CSc4nnnn4-c4ccccc4)cc3s2)c1C | inconclusive: -54.4% |
| O=C(CSc1ccccn1)Nc1ccc2c(c1)C(=O)c1ccccc1C2=O | inconclusive: -48.1% |
| Cc1cc(C)c(C(=O)CSc2nc(C)cc(=O)[nH]2)c(C)c1 | inactive: 19% |
| O=C(NC1CCCCC1)c1ccc2c(c1)OCO2 | inactive: 96.3% |
| NC(=O)c1ccc(NC(=O)COC(=O)C2CC(=O)N(Cc3ccccc3)C2)cc1 (stereo not given) | inconclusive: -50.9% |
| CCOc1ccccc1NC(=O)c1cccc(NC(=O)CC(c2ccccc2)c2ccccc2)c1 | inconclusive: -45.1% |
| Cc1ccc(C2c3[nH]c4ccccc4c3CCN2C(=O)CCc2ccccc2)cc1 (stereo not given) | active: -86% |
| O=S(Cc1ccc(Cl)cc1)c1ncc(CO)n1Cc1ccccc1 (stereo not given) | inconclusive: -42.4% |
| CCC(C)c1ccc(NC(=S)NCc2ccccn2)cc1 (stereo not given) | inconclusive: -52.2% |
| Cn1c(O)c(/C=N/NC(=O)c2ccncc2)c(=O)n(C)c1=S | inactive: 119% |
| C=CCn1c(Cc2c[nH]c3ccccc23)n[nH]c1=S | inactive: 3.73% |
| COc1ccc(OC)c(CN2C(=O)c3ccccc3C2c2nnnn2-c2ccc3c(c2)OCCO3)c1 (stereo not given) | inconclusive: -55% |
| O=C1c2cccc3cccc(c23)C(=O)N1CCc1ccccc1 | inactive: 157% |
| COc1ccc(NS(=O)(=O)c2ccc3c(c2)NC(=O)CO3)cc1 | inconclusive: -46.2% |
| COc1ccc2cc(C(=O)C3CCCN(C(=O)CSc4nnc(C)o4)C3)ccc2c1 (stereo not given) | active: -65.7% |
| Cc1ccn2c(Nc3ccccc3C)c(-c3cccnc3)nc2c1 | inconclusive: -50.2% |
| COc1ccccc1/C=C/C(=O)NCCC1=CCCCC1 | inactive: -18% |
| O=c1cc(CO)[nH]nc1CO | inactive: -27.4% |
| COc1ccc(-c2nn(Cc3ccccc3)cc2C(=O)N2CCN(c3ncccn3)CC2)cc1 | inconclusive: -52.4% |
| O=C(NC(=S)Nc1ccc(NC(=O)c2ccccc2)cc1)c1ccc(F)cc1 | inconclusive: -43.8% |
| COc1ccc(Nc2nc3ccccc3nc2-n2nc(C)cc2C)cc1 | inconclusive: -40.9% |
| CCOc1ccc(NC(=O)Cn2cc(C(=O)c3ccccc3)c(=O)c3cc4c(cc32)OCCO4)cc1 | active: -104% |
| CCc1ccccc1Nc1cc(C(=O)NCCCN(C)C2CCCCC2)c2ccccc2n1 | inactive: -32.4% |

Another view of part of the listing above.
SMILES,"activity change, negative = inhibition"
O=C(NC(=S)Nc1ccc(NC(=O)c2ccccc2)cc1)c1ccc(F)cc1,inconclusive: -43.8%
COc1ccc(Nc2nc3ccccc3nc2-n2nc(C)cc2C)cc1,inconclusive: -40.9%
CCOc1ccc(NC(=O)Cn2cc(C(=O)c3ccccc3)c(=O)c3cc4c(cc32)OCCO4)cc1,active: -104%
CCc1ccccc1Nc1cc(C(=O)NCCCN(C)C2CCCCC2)c2ccccc2n1,inactive: -32.4%

Further results follow.

| SMILES | activity change, negative = inhibition |
| --- | --- |
| BrC(=C\c1ccccc1)/C=N/Nc1ccc2nncn2n1 | inconclusive: -41.3% |
| O=C(c1nn2c(C(F)(F)F)cc(-c3cccs3)nc2c1Cl)N1CCCc2ccccc21 | inconclusive: -57.3% |
| CC(=O)NC1CC2CCCC(C1)N2C(=O)Nc1ccc(Cl)cc1 (stereo not given) | inactive: -17% |
| CCCCOc1ccc(NC(=O)CN2CCN(CC)CC2)cc1 | inactive: 40.9% |
| COc1ccc(/C=N/NC(=O)c2cc(C)n(-c3ccccc3)c2C)cc1OC | inconclusive: -55.9% |
| Cc1ccc(Cl)cc1N1CCN(S(=O)(=O)c2ccc(-c3ccc(=O)[nH]n3)o2)CC1 | inconclusive: -54.7% |
| Cc1onc(-c2ccccc2Cl)c1C(=O)NC(=S)Nc1ccccc1C(N)=O | inconclusive: -43.8% |
| C[C@]12CC[C@H](O)C[C@H]1CC[C@@H]1[C@@H]2CC[C@]2(C)[C@@H](C3=CC(=O)OC3)CC[C@]12O | active: -97% |
| Cn1c(=O)c2c(ncn2CC(=O)OCC(=O)NCc2ccc(F)cc2)n(C)c1=O | active: -64.9% |
| CN(C)CC1CCCCC1OC(=O)c1ccc(Cl)c(Cl)c1 (stereo not given) | inconclusive: -50.3% |
| CN(Cc1ccncc1)C1CC(=O)N(c2ccc(F)cc2)C1=O (stereo not given) | inconclusive: -43.9% |
| CCOc1ccc(N(CC(=O)NCCSCc2ccc(Cl)cc2)S(C)(=O)=O)cc1 | inconclusive: -44.1% |
| CCC1CCCCN1C(=O)Cn1c(=O)n(CCCCCC(=O)NCc2ccccc2Cl)c(=O)c2sccc21 (stereo not given) | inactive: 2.34% |
| CC(C)C[C@H]1C(=O)N2CCC[C@H]2[C@]2(O)O[C@](NC(=O)C3C=C4c5cccc6[nH]c(Br)c(c56)C[C@H]4N(C)C3)(C(C)C)C(=O)N12 (stereo not given in full) | inactive: -26.2% |
| c1ccc(C(Cc2nc(-c3ccncc3)no2)c2ccccc2)cc1 | active: -68.8% |
| O=C(Nc1ccccn1)C1CCN(c2ncnc3c2nc2n3CCCCC2)CC1 | active: -84.3% |
| COc1ccc(-c2cc(=O)oc3c(C)c(O)ccc23)cc1 | active: -72.3% |
| O=C(O)[C@H](Cc1ccccc1)N1C(=O)c2c(Cl)c(Cl)c(Cl)c(Cl)c2C1=O | inconclusive: -44.1% |
| Cc1ccc(/C(N)=N/OC(=O)Cc2cccc3ccccc23)cc1 | inactive: -15.2% |
| N#C/C(=C/c1ccc(O)c([N+](=O)[O-])c1)C(=O)Nc1ccccc1 | inconclusive: -45.1% |
| O=C(Nc1cccnc1)c1ccc(S(=O)(=O)N2CCCCCC2)cc1 | inconclusive: -52.4% |
| C=CCN(C(=O)c1csnn1)C(C(=O)NC1CCCC1)c1ccc(Cl)cc1 (stereo not given) | inconclusive: -42.8% |
| O=C(O)c1ccccc1-c1ccccc1C(=O)NCc1cccnc1 | inconclusive: -51.6% |
| Cn1c(N)c(C(=O)COC(=O)COc2ccccc2Cl)c(=O)n(C)c1=O | inconclusive: -45.6% |
| COc1ccc(OC)c(N/C=C/C(=O)c2ccccc2)c1 | active: -77.6% |
| Cc1ccccc1-n1c(C)cc(/C=C(\C#N)C(=O)NCC2CCCO2)c1C (stereo not given) | inconclusive: -47.5% |
| Oc1cc(Nc2ccccc2)cc2cccnc12 | active: -82.4% |
